Measurements reported in the supplement of paper PMC10849652.
The list shows a part of the results.

Sequences of proteins named here, by UniProt entry; tags and fusion partners are left off. A change or cut given only in a name is not applied to a line headed by its entry.
UniProt Q53GS9: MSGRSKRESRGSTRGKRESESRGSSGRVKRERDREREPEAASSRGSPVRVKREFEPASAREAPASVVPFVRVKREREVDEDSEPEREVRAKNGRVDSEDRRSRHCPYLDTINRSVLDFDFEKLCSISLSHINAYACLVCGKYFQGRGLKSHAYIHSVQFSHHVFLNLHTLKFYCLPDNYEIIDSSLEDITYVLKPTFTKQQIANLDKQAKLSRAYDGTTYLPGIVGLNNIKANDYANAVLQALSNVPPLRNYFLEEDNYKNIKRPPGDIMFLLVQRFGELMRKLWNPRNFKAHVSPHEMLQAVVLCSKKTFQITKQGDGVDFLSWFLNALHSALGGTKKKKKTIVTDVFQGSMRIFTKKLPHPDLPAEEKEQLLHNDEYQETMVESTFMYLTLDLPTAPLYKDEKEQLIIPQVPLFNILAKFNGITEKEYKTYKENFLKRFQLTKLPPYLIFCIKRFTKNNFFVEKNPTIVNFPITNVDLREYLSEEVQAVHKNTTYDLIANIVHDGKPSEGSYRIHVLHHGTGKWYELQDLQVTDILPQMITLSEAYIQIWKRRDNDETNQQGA
UniProt Q9BZL1: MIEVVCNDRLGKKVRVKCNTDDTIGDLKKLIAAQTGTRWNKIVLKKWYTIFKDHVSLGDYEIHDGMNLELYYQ
UniProt P15374: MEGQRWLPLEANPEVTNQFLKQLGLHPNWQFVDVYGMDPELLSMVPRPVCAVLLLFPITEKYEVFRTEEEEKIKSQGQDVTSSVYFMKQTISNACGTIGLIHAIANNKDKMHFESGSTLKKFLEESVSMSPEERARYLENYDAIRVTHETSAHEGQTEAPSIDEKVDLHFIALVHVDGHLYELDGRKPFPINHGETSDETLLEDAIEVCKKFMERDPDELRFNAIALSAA
UniProt Q70J99: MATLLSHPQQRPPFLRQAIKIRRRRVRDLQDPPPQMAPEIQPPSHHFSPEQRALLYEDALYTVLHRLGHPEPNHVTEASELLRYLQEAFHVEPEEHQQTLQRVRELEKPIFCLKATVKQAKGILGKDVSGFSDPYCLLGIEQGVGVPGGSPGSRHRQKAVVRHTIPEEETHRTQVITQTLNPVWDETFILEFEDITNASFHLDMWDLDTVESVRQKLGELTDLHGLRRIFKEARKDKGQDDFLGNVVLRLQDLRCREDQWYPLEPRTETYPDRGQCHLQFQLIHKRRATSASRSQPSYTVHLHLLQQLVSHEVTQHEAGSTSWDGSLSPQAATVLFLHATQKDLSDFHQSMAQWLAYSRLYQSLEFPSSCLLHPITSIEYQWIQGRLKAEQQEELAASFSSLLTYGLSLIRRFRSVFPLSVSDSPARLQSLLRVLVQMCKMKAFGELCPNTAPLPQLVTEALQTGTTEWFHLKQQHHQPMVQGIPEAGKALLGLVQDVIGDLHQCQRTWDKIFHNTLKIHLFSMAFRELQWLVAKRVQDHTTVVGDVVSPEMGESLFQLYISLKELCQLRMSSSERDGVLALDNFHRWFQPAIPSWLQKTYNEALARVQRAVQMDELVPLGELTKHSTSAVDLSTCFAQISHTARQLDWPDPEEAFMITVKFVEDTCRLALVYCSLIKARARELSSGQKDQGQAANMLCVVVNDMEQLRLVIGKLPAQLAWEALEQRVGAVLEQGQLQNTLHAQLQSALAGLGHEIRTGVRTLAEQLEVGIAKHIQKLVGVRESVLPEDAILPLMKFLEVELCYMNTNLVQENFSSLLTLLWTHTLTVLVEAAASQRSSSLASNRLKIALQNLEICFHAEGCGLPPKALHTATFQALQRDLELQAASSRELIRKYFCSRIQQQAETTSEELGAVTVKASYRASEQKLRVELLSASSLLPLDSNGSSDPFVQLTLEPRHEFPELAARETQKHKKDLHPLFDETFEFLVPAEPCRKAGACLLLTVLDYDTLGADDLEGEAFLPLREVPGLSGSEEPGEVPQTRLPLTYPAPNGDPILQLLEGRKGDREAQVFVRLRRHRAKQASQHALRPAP
UniProt Q9BRT2: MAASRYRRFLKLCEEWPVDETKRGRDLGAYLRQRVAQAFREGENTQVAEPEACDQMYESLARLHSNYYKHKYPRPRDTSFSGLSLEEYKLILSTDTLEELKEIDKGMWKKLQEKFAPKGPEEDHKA
UniProt Q16851: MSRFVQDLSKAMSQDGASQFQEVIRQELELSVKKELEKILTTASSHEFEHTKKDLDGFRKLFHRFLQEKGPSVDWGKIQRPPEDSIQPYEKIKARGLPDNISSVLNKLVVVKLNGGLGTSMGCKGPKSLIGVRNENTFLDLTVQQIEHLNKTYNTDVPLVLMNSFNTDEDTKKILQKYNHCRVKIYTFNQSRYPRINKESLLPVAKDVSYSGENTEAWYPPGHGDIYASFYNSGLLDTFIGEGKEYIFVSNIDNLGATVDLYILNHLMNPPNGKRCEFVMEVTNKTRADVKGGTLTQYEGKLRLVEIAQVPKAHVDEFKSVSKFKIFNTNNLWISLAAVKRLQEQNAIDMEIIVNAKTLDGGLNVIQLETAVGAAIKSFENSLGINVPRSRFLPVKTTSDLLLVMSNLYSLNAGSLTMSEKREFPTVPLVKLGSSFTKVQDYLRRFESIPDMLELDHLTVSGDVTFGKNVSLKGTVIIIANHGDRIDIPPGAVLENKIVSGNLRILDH
UniProt P55072, whole entry, looked up: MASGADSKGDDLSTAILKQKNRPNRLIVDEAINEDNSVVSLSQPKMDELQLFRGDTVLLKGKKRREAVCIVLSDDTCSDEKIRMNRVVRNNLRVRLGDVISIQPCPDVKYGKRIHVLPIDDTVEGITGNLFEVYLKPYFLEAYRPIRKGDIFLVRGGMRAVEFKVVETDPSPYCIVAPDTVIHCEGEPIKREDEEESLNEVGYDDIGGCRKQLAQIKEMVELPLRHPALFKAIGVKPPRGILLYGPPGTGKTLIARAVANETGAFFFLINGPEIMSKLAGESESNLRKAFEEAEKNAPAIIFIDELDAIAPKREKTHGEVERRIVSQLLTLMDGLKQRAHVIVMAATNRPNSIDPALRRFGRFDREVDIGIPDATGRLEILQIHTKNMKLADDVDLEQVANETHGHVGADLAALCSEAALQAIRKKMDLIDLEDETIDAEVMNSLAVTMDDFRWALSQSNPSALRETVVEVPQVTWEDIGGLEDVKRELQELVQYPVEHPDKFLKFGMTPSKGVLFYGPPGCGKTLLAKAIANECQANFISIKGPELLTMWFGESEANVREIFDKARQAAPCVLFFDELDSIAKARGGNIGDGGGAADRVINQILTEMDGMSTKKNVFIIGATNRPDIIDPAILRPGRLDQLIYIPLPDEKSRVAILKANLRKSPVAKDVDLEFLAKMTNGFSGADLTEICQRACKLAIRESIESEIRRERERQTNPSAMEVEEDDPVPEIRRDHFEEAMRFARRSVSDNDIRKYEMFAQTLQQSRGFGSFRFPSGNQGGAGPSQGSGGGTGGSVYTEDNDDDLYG
UniProt Q93009, whole entry, looked up: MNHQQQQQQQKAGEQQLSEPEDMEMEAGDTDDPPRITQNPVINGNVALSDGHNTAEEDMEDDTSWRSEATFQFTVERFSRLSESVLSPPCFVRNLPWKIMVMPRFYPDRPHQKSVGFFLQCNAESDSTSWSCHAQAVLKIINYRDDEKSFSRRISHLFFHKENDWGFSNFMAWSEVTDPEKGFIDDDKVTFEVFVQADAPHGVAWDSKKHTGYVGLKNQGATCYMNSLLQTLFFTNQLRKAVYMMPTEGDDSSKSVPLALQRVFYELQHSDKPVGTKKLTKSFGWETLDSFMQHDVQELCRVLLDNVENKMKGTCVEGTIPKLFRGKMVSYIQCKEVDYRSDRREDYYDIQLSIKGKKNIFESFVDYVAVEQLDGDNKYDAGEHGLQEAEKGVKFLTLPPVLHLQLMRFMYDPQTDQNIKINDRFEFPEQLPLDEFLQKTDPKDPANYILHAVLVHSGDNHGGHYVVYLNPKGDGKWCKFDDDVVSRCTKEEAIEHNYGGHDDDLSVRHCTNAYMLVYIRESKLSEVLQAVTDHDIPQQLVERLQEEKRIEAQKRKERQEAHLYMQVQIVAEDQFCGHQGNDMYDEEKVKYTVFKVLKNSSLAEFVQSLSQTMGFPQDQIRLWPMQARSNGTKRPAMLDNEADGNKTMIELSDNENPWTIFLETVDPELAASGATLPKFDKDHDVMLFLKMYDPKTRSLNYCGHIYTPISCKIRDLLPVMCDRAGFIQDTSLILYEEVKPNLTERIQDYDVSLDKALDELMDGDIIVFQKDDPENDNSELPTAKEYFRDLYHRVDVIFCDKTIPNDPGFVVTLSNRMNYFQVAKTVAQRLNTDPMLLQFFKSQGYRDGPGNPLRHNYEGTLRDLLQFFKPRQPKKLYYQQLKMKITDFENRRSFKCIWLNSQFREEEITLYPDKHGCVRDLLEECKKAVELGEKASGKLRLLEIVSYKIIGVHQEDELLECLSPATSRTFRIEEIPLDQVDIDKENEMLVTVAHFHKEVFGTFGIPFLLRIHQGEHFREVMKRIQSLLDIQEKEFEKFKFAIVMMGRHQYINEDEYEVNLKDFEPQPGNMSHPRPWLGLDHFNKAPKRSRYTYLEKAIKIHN
UniProt Q96K76: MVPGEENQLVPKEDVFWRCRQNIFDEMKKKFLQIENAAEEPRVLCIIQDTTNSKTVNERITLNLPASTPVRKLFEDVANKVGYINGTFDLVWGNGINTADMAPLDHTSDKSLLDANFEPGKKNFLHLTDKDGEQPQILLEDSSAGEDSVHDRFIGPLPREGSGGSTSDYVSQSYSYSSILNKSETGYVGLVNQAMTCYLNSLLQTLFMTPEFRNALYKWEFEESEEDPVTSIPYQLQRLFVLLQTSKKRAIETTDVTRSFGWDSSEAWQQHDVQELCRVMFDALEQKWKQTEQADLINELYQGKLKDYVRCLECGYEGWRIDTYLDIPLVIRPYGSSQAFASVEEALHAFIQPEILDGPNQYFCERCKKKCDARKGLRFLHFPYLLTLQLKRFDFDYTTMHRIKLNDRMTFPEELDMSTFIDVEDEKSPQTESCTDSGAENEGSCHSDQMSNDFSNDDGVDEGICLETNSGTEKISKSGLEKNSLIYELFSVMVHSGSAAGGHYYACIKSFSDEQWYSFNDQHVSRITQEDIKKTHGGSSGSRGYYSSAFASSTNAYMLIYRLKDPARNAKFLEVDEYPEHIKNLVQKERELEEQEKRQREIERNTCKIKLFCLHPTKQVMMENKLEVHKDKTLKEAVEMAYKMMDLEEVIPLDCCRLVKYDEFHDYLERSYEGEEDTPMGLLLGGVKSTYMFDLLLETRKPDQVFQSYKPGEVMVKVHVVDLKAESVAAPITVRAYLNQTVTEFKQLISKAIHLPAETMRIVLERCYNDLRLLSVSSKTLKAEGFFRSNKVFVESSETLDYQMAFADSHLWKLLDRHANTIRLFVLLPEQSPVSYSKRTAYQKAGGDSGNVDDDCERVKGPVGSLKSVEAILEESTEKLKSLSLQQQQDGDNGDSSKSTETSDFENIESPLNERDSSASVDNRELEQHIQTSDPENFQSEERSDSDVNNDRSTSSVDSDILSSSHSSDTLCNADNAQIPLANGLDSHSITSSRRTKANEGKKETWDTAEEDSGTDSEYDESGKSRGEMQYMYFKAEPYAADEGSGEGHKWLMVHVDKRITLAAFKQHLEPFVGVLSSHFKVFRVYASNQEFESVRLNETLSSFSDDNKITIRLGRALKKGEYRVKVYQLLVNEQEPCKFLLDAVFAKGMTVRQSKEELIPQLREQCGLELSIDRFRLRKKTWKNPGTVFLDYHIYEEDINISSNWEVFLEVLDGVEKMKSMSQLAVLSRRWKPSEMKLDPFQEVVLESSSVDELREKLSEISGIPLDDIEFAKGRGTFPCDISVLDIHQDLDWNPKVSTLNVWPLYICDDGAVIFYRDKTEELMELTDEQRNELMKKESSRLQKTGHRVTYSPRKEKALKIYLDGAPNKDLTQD
UniProt Q8NBZ7: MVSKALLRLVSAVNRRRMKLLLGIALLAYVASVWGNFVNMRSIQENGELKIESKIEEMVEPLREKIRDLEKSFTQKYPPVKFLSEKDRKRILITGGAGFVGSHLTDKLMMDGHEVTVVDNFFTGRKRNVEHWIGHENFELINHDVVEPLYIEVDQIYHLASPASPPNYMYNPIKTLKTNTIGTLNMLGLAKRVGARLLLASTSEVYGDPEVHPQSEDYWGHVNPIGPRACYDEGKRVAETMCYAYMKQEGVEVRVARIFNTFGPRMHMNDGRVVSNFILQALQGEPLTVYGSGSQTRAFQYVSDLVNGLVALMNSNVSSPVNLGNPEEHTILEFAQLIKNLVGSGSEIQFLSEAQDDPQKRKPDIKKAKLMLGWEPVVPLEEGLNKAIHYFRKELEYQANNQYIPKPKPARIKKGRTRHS

Legend:
Assay in all cases: log2 fold change, soluble protein after heating vs DMSO (PISA); higher = thermal stabilisation; K562 cells, 10 uM, 30 min; active = over 0.2 and 3.5 SD of the protein, either way, in both replicates (recomputed)
[1] = compound: CC[C@@H]1C(=O)N(C)c2cnc(Nc3ccc(C(=O)NC4CCN(C)CC4)cc3OC)nc2N1C1CCCC1
Procedure, shortened: (§1)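 Soluble protein was defined as the supernatant after 21,000xg for 90 min. It came from K562 cells at 2×10^6 cells/mL given 10 μM compound for 30 min, heated in aliquots for 3 min across 48°C-58°C, pooled, and extracted in PBS with 0.5% NP-40 at 4°C, and was quantified by TMTpro 16plex LC-MS/MS with equalised channel sums. Thermal stability against control samples, from duplicates, is reported as log2 fold change.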

volasertib = compound: CC[C@@H]1C(=O)N(C)c2cnc(Nc3ccc(C(=O)N[C@H]4CC[C@H](N5CCN(CC6CC6)CC5)CC4)cc3OC)nc2N1C(C)C [volasertib]
Procedure, shortened: as §1

[2] = compound: CC[C@H](C)N1C=C(C2=C(C=C(C=C21)C3=CN=C(C=C3)N4CCNCC4)C(=O)NCC5=C(C=C(NC5=O)C)C)C
Procedure, shortened: as §1

epoxomicin = compound: CC[C@H](C)[C@@H](C(=O)N[C@@H]([C@@H](C)O)C(=O)N[C@@H](CC(C)C)C(=O)[C@]1(CO1)C)NC(=O)[C@H]([C@@H](C)CC)N(C)C(=O)C [epoxomicin]
Procedure, shortened: as §1

[3] = compound: CCn1cc(-c2ccnc3[nH]c(-c4cccc(CN(C)C)c4)cc23)c(-c2ccc(NC(=O)N(C)C)cc2)n1
Procedure, shortened: as §1

[4] = compound: CN(C)CC(=O)Nc1ccc2[nH]c(=O)c3ccccc3c2c1
Procedure, shortened: as §1

[5] = compound: CN1C2=C(C3=C1C(=O)N(N=C3)CC4=CC(=CC=C4)N)SC(=C2)S(=O)C
Procedure, shortened: as §1

[6] = compound: CN1CCC(CNc2ccc3ncc(-c4cccc(OC(F)(F)F)c4)n3n2)CC1
Procedure, shortened: as §1

saracatinib = compound: CN1CCN(CCOc2cc(OC3CCOCC3)c3c(Nc4c(Cl)ccc5c4OCO5)ncnc3c2)CC1 [saracatinib]
Procedure, shortened: as §1

sotrastaurin = compound: CN1CCN(c2nc(C3=C(c4c[nH]c5ccccc45)C(=O)NC3=O)c3ccccc3n2)CC1 [sotrastaurin]
Procedure, shortened: as §1

Tubastatin A = compound: CN1CCc2c(c3ccccc3n2Cc2ccc(C(=O)NO)cc2)C1 [Tubastatin A]
Procedure, shortened: as §1

[7] = compound: CNC(=O)C1=CC=CC=C1NC2=NC(=NC=C2Cl)NC3=C(C=C(C=C3)N4CCOCC4)OC
Procedure, shortened: as §1

defactinib = compound: CNC(=O)c1ccc(Nc2ncc(C(F)(F)F)c(NCc3nccnc3N(C)S(C)(=O)=O)n2)cc1 [defactinib]
Procedure, shortened: as §1

rucaparib = compound: CNCc1ccc(-c2[nH]c3cc(F)cc4c3c2CCNC4=O)cc1 [rucaparib]
Procedure, shortened: as §1

[8] = compound: CNc1nc(-c2ccc3c(N)n[nH]c3c2)cc(N2C[C@@H](C(=O)NC3CCCCC3)CC[C@H]2C)n1
Procedure, shortened: as §1

encorafenib = compound: COC(=O)N[C@@H](C)CNc1nccc(-c2cn(C(C)C)nc2-c2cc(Cl)cc(NS(C)(=O)=O)c2F)n1 [encorafenib]
Procedure, shortened: as §1

[9] = compound: COC(=O)[C@H](CCSC)NC(=O)C1=C(C=C(C=C1)NC[C@H](CS)N)C2=CC=CC=C2
Procedure, shortened: as §1

[10] = compound: CCn1c(C(=O)N(C2CC2)C2CC2)cc2c3c(ncn3C)c(Nc3cc(C)n(C)n3)nc21
Procedure, shortened: as §1

rosiglitazone = compound: CN(CCOC1=CC=C(C=C1)C[C@H]2C(=O)NC(=O)S2)C3=CC=CC=N3 (racemic) [rosiglitazone]
Procedure, shortened: as §1

alvocidib = compound: CN1CC[C@H](c2c(O)cc(O)c3c(=O)cc(-c4ccccc4Cl)oc23)[C@H](O)C1 [alvocidib]
Procedure, shortened: as §1

Measured: log2 fold change

UTP14A (UniProt Q9BVJ6)
inactive: [1] 0.092 | volasertib 0.176 | [2] 0.028 | epoxomicin -0.144 | [3] 0.106 | [4] -0.136 | [5] 0.263 | [6] 0.106 | saracatinib -0.023 | sotrastaurin -0.017 | Tubastatin A 0.163 | [7] 0.024 | defactinib 0.055 | rucaparib 0.15 | [8] 0.066 | encorafenib 0.124 | [9] 0.021

USP39 (UniProt Q53GS9)
inactive: [1] 0.032 | volasertib 0.014 | [2] 0.009 | epoxomicin -0.087 | [10] 0.028 | [3] 0.014 | [4] -0.055 | rosiglitazone -0.026 | [5] 0.012 | [6] 0.031 | saracatinib 0.02 | sotrastaurin -0.027 | alvocidib 0.024 | Tubastatin A 0.01 | [7] 0 | defactinib 0.054 | rucaparib 0.053 | [8] -0.04 | encorafenib 0.037 | [9] 0.006

USP30 (UniProt Q70CQ3)
inactive: [1] -0.091 | volasertib -0.014 | [2] 0.061 | epoxomicin 0.399 | [10] -0.181 | [4] -0.145 | rosiglitazone 0.011 | [5] 0.084 | saracatinib -0.019 | sotrastaurin -0.317 | alvocidib 0 | Tubastatin A 0.053 | [7] 0.109 | defactinib -0.047 | rucaparib 0.023 | [8] -0.094 | encorafenib -0.064 | [9] 0.392

UBL5 (UniProt Q9BZL1)
inactive: [1] -0.1 | volasertib -0.158 | [2] 0.1 | epoxomicin 0.102 | [10] -0.037 | [3] -0.052 | [4] 0.007 | rosiglitazone 0.027 | [5] 0.006 | [6] 0.056 | saracatinib 0.019 | sotrastaurin -0.034 | alvocidib 0 | Tubastatin A -0.01 | [7] 0.032 | defactinib -0.101 | rucaparib -0.009 | [8] -0.053 | encorafenib 0.011 | [9] -0.069

VARS2, A0A0G2JL52
inactive: [1] -0.024 | volasertib 0.001 | [2] 0.08 | epoxomicin 0.011 | [3] -0.013 | [4] 0.007 | [5] -0.016 | [6] -0.126 | saracatinib 0.007 | sotrastaurin -0.019 | Tubastatin A -0.026 | [7] -0.019 | defactinib -0.005 | rucaparib 0.02 | [8] 0.012 | encorafenib -0.004 | [9] -0.041

UCHL3 (UniProt P15374)
inactive: [1] -0.052 | volasertib -0.114 | [2] 0.041 | epoxomicin 0.029 | [10] 0.013 | [3] -0.094 | [4] 0.012 | rosiglitazone 0.022 | [5] -0.023 | [6] -0.079 | saracatinib 0.001 | sotrastaurin -0.004 | alvocidib -0.13 | Tubastatin A -0.017 | [7] 0.022 | defactinib -0.031 | rucaparib -0.052 | [8] -0.024 | encorafenib 0.028 | [9] -0.005

UNC13D isoform 3 (UniProt Q70J99)
inactive: [1] 0.006 | volasertib -0.19 | [2] -0.087 | epoxomicin -0.078 | [10] -0.081 | [3] 0.047 | [4] 0.036 | rosiglitazone -0.015 | [5] 0.247 | [6] 0.052 | saracatinib -0.062 | sotrastaurin -0.227 | alvocidib -0.021 | Tubastatin A 0.066 | [7] -0.029 | defactinib -0.031 | rucaparib 0.349 | [8] 0.144 | encorafenib 0.143 | [9] -0.137

UGDH (UniProt O60701)
inactive: [1] -0.041 | volasertib -0.128 | [2] 0.11 | epoxomicin 0.064 | [3] 0.031 | [4] 0.05 | [5] -0.113 | [6] -0.106 | saracatinib -0.036 | Tubastatin A 0.004 | [7] -0.085 | defactinib -0.209 | rucaparib -0.089 | [8] 0.074 | encorafenib 0.087 | [9] -0.038
active: sotrastaurin -0.284

UBE4B isoform 4 (UniProt O95155)
inactive: [1] -0.046 | [2] 0.024 | epoxomicin 0.023 | [3] -0.005 | [4] 0.01 | [5] -0.003 | [6] -0.079 | saracatinib 0.018 | sotrastaurin -0.038 | Tubastatin A 0.016 | [7] 0.02 | defactinib -0.071 | rucaparib -0.077 | [8] -0.058 | encorafenib 0.01 | [9] -0.001
active: volasertib -0.229

UQCC2 (UniProt Q9BRT2)
inactive: [1] 0.059 | volasertib 0.027 | [2] -0.034 | epoxomicin -0.025 | [10] 0.056 | [3] 0.11 | [4] 0.037 | rosiglitazone -0.004 | [5] 0.073 | [6] -0.07 | saracatinib -0.042 | sotrastaurin -0.013 | alvocidib 0.031 | Tubastatin A 0.003 | [7] -0.016 | defactinib -0.03 | rucaparib -0.033 | [8] -0.05 | encorafenib -0.036 | [9] 0.036

UBL7 (UniProt Q96S82)
inactive: [1] 0 | volasertib -0.156 | [2] 0.028 | epoxomicin 0.085 | [10] -0.005 | [3] 0.128 | [4] 0.061 | rosiglitazone 0.06 | [5] -0.13 | [6] 0.039 | saracatinib -0.152 | sotrastaurin -0.019 | alvocidib -0.105 | Tubastatin A 0.094 | [7] 0.042 | defactinib -0.043 | rucaparib -0.1 | [8] 0.015 | encorafenib 0.048 | [9] -0.146

UGP2 (UniProt Q16851)
inactive: [1] 0.026 | volasertib 0.057 | [2] -0.001 | epoxomicin 0.023 | [10] 0.006 | [3] -0.005 | [4] -0.016 | rosiglitazone -0.003 | [5] -0.053 | [6] -0.053 | saracatinib 0.004 | sotrastaurin 0.003 | alvocidib -0.023 | Tubastatin A -0.019 | [7] -0.013 | defactinib -0.004 | rucaparib -0.05 | [8] -0.021 | encorafenib -0.017 | [9] 0.012

UBFD1 (UniProt O14562)
inactive: [1] -0.053 | volasertib -0.166 | [2] 0.015 | epoxomicin -0.034 | [10] -0.027 | [3] -0.039 | [4] 0.014 | rosiglitazone 0.048 | [5] -0.063 | [6] -0.084 | saracatinib -0.03 | sotrastaurin -0.013 | alvocidib -0.058 | Tubastatin A 0.07 | [7] 0.007 | defactinib -0.021 | rucaparib -0.041 | [8] -0.025 | encorafenib 0.007 | [9] -0.017

VCP (UniProt P55072)
inactive: [1] 0.005 | volasertib 0.081 | [2] -0.026 | epoxomicin -0.028 | [10] 0.018 | [3] 0.027 | [4] -0.007 | rosiglitazone -0.01 | [5] -0.024 | [6] 0.012 | saracatinib 0.022 | sotrastaurin 0.033 | alvocidib 0.014 | Tubastatin A -0.041 | [7] -0.008 | defactinib -0.001 | rucaparib -0.023 | [8] -0.015 | encorafenib -0.013 | [9] 0.033

USP7 (UniProt Q93009)
active: [6] -0.351
inactive: [1] -0.045 | volasertib -0.215 | [2] 0.101 | epoxomicin 0.02 | [3] -0.164 | [4] 0.097 | [5] -0.005 | saracatinib -0.087 | sotrastaurin -0.083 | Tubastatin A 0.023 | [7] -0.106 | defactinib -0.104 | rucaparib 0.03 | [8] 0.152 | encorafenib 0.057 | [9] -0.06

USP47 (UniProt Q96K76)
inactive: [1] -0.066 | volasertib -0.349 | [2] 0.086 | epoxomicin -0.159 | [10] -0.064 | [3] 0.014 | [4] 0.066 | rosiglitazone 0.029 | [5] 0.127 | [6] -0.09 | saracatinib -0.077 | sotrastaurin -0.121 | alvocidib 0.027 | Tubastatin A 0.007 | [7] -0.012 | defactinib -0.038 | rucaparib 0.145 | [8] 0.038 | encorafenib 0.123 | [9] -0.042

UXS1 isoform 2 (UniProt Q8NBZ7)
inactive: [1] 0.087 | volasertib 0.104 | [2] 0.058 | epoxomicin -0.029 | [10] -0.011 | [4] -0.021 | rosiglitazone -0.05 | [5] 0.04 | saracatinib -0.018 | sotrastaurin 0.064 | alvocidib 0.004 | Tubastatin A 0.066 | [7] -0.013 | defactinib 0 | rucaparib 0.101 | [8] 0.013 | encorafenib 0.003 | [9] -0.014

Quoted from the entries so far (4 entries):
UBFD1 (UniProt O14562)
inactive: [1] -0.053 | volasertib -0.166 | [2] 0.015 | epoxomicin -0.034 | [10] -0.027 | [3] -0.039 | [4] 0.014 | rosiglitazone 0.048 | [5] -0.063 | [6] -0.084 | saracatinib -0.03 | sotrastaurin -0.013 | alvocidib -0.058 | Tubastatin A 0.07 | [7] 0.007 | defactinib -0.021 | rucaparib -0.041 | [8] -0.025 | encorafenib 0.007 | [9] -0.017

VCP (UniProt P55072)
inactive: [1] 0.005 | volasertib 0.081 | [2] -0.026 | epoxomicin -0.028 | [10] 0.018 | [3] 0.027 | [4] -0.007 | rosiglitazone -0.01 | [5] -0.024 | [6] 0.012 | saracatinib 0.022 | sotrastaurin 0.033 | alvocidib 0.014 | Tubastatin A -0.041 | [7] -0.008 | defactinib -0.001 | rucaparib -0.023 | [8] -0.015 | encorafenib -0.013 | [9] 0.033

USP7 (UniProt Q93009)
active: [6] -0.351
inactive: [1] -0.045 | volasertib -0.215 | [2] 0.101 | epoxomicin 0.02 | [3] -0.164 | [4] 0.097 | [5] -0.005 | saracatinib -0.087 | sotrastaurin -0.083 | Tubastatin A 0.023 | [7] -0.106 | defactinib -0.104 | rucaparib 0.03 | [8] 0.152 | encorafenib 0.057 | [9] -0.06

USP47 (UniProt Q96K76)
inactive: [1] -0.066 | volasertib -0.349 | [2] 0.086 | epoxomicin -0.159 | [10] -0.064 | [3] 0.014 | [4] 0.066 | rosiglitazone 0.029 | [5] 0.127 | [6] -0.09 | saracatinib -0.077 | sotrastaurin -0.121 | alvocidib 0.027 | Tubastatin A 0.007 | [7] -0.012 | defactinib -0.038 | rucaparib 0.145 | [8] 0.038 | encorafenib 0.123 | [9] -0.042
